{"sequences": {"note": "Chains of the proteins cited; added tags and fusions are not shown. Lines headed by an entry give the natural chain unless they say otherwise; changes in a name come on top.", "UniProt Q08397": "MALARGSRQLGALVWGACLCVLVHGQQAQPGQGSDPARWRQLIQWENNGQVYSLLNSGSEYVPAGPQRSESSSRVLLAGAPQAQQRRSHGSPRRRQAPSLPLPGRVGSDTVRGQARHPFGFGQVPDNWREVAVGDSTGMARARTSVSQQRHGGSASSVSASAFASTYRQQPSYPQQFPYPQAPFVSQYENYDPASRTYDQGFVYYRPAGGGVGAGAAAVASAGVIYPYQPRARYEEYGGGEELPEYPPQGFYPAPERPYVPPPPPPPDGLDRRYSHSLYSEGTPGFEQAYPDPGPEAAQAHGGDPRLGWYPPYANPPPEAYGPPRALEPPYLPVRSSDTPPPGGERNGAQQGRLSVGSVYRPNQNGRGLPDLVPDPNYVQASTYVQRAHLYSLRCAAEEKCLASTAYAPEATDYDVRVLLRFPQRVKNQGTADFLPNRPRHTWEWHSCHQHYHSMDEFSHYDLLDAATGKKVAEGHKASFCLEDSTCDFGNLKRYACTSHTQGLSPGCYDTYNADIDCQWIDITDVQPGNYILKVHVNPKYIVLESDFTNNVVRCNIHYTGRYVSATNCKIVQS"}, "source": "patent US20110076272A1", "about": "“THERAPEUTIC METHODS AND COMPOSITIONS” (priority 2009, published 2011)", "binders": {"B1": {"name": "anti-LOXL2 monoclonal antibody AB0023 (antibody, V domains shown)", "VH": "QVQLQQSGAELVRPGTSVKVSCKASGYAFTYYLIEWVKQRPGQGLEWIGVINPGSGGTNYNEKFKGKATLTADKSSSTAYMQLSSLTSDDSAVYFCARNWMNFDYWGQGTTLTVSS", "VL": "DIVMTQAAPSVSVTPGESVSISCRSSKSLLHSNGNTYLYWFLQRPGQSPQFLIYRMSNLASGVPDRFSGSGSGTAFTLRISRVEAEDVGVYYCMQHLEYPYTFGGGTKLEIK", "notes": "Mouse monoclonal antibody from a hybridoma, raised against full-length LOXL2 and purified from ascites; also called mouse anti-human LOXL2 antibody; LOXL2-specific monoclonal antibody"}}, "key": {"[1]": {"target": "lysyl oxidase-like 1 (LOXL1) (UniProt Q08397)", "experiment": "Western blot and ELISA (FIG. 8, panels M, N)"}, "[2]": {"target": "lysyl oxidase-like 1 (LOXL1) (UniProt Q08397)", "experiment": "Western blot probed with AB0023 [Cont. 2) panel m]"}, "[3]": {"target": "lysyl oxidase-like 1 (LOXL1) (UniProt Q08397)", "experiment": "ELISA, AB0023 titrated on hLOXL1 [Cont. 2) panel n]"}}, "note": "Results are given in words; binding and its absence hold for the method and conditions named.", "data": [{"binder": "B1", "values": [{"measurement": "binding", "setting": "[1]", "value": "no binding"}, {"measurement": "binding", "setting": "[2]", "value": "no binding"}, {"measurement": "binding", "setting": "[3]", "value": "no binding (tested: 100 nM)"}]}]}
